Laboratory results: PubChem BioAssay AID1671195 (Yale University, 2021)
The whole screen tested about 22,000 reagents; this is a random part of them. About 1,510 of all reagents (6.9%) count as active. 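Active includes knockdowns raising or lowering LDL uptake; positive z-scores mean more uptake, negative mean less.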

Aim: 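Genes whose knockdown alters LDL uptake in liver cancer cells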 (primary screen)
Cells: human Huh7 hepatoma cells
Reagent: siRNA pool against human genes, 18 nM
Timing: about 2 to 2.5 days of knockdown, then 8 h LDL uptake
Conditions: DiI-labelled LDL at 30 µg/ml for 8 h, in lipoprotein-deficient serum medium
Measured: 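Per-cell DiI-LDL intensity by automated imaging; well means scaled to the plate median and given as a robust z-score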
Scale: robust z-score: higher = more LDL uptake after knockdown
Active means: 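a gene counts as active if at least two replicate z-scores exceed ±2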

C20orf173 (chromosome 20 open reading frame 173)
- robust z-score, replicate 1: 0.628
- robust z-score, replicate 2: 0.496
- robust z-score, replicate 3: 0.212
- outcome: inactive

CIAO2B (cytosolic iron-sulfur assembly component 2B)
- robust z-score, replicate 1: -1.33
- robust z-score, replicate 2: 0.417
- robust z-score, replicate 3: 0.562
- outcome: inactive

MYO18A (myosin XVIIIA)
- robust z-score, replicate 1: 1.34
- robust z-score, replicate 2: 1.43
- robust z-score, replicate 3: -0.233
- outcome: inactive

LAMA2 (laminin subunit alpha 2)
- robust z-score, replicate 1: 0.0468
- robust z-score, replicate 2: 0.0407
- robust z-score, replicate 3: -0.266
- outcome: inactive

TBR1 (T-box brain transcription factor 1)
- robust z-score, replicate 1: 1.34
- robust z-score, replicate 2: 2.7
- robust z-score, replicate 3: 2.23
- outcome: active

DUSP7 (dual specificity phosphatase 7)
- robust z-score, replicate 1: 0.949
- robust z-score, replicate 2: 1.35
- robust z-score, replicate 3: 1.05
- outcome: inactive

JAM3 (junctional adhesion molecule 3)
- robust z-score, replicate 1: -0.902
- robust z-score, replicate 2: -0.458
- robust z-score, replicate 3: -0.761
- outcome: inactive

Next part; the last 2 above are carried over.
DUSP7 (dual specificity phosphatase 7)
- robust z-score, replicate 1: 0.949
- robust z-score, replicate 2: 1.35
- robust z-score, replicate 3: 1.05
- outcome: inactive

JAM3 (junctional adhesion molecule 3)
- robust z-score, replicate 1: -0.902
- robust z-score, replicate 2: -0.458
- robust z-score, replicate 3: -0.761
- outcome: inactive

NES (nestin)
- robust z-score, replicate 1: -1.19
- robust z-score, replicate 2: -1.07
- robust z-score, replicate 3: 0.44
- outcome: inactive

OR6C2 (olfactory receptor family 6 subfamily C member 2)
- robust z-score, replicate 1: 0.411
- robust z-score, replicate 2: 0.482
- robust z-score, replicate 3: 0.588
- outcome: inactive

LHX1 (LIM homeobox 1)
- robust z-score, replicate 1: -1.34
- robust z-score, replicate 2: -0.82
- robust z-score, replicate 3: -0.997
- outcome: inactive

HTR3A (5-hydroxytryptamine receptor 3A)
- robust z-score, replicate 1: -0.749
- robust z-score, replicate 2: -0.525
- robust z-score, replicate 3: -1.35
- outcome: inactive

NTM (neurotrimin)
- robust z-score, replicate 1: 0.82
- robust z-score, replicate 2: 0.149
- robust z-score, replicate 3: -0.674
- outcome: inactive

LOC440507 (retired record)
- robust z-score, replicate 1: 1.34
- robust z-score, replicate 2: 1.35
- robust z-score, replicate 3: 1.7
- outcome: inactive

FOCAD (focadhesin)
- robust z-score, replicate 1: 0.093
- robust z-score, replicate 2: 0.109
- robust z-score, replicate 3: 1.08
- outcome: inactive

LOC440241 (retired record)
- robust z-score, replicate 1: -0.514
- robust z-score, replicate 2: -0.614
- robust z-score, replicate 3: -0.158
- outcome: inactive

SFN (stratifin)
- robust z-score, replicate 1: 0.611
- robust z-score, replicate 2: 1.28
- robust z-score, replicate 3: -0.284
- outcome: inactive
